Laboratory results published in the supplement of paper PMC10398353.
Values joined by “and” are separate entries in the source; they are usually repeats but may differ in a detail not shown here. Equal entries are not always repeated. Structures can show the parent of a compound that is named as a salt. ± gives the standard deviation of the averaged measurements. Some of the results follow. This is a noisy data set.

What follows are molecules tested on Salmonella enterica serovar Typhimurium ST313 D23580 (assay: normalized bacterial growth (OD600 20 h minus 0 h, interquartile-mean normalized) (fraction of plate interquartile mean); higher = more bacterial growth (less inhibition)). Settings: LPM (pH 5.8, low phosphate, low Mg2+), concentration: 10 µM, temperature: 37 °C.

SMILES | normalized bacterial growth
COc1ccc(Cc2nccc3cc(OC)c(OC)cc23)cc1OC | 1.26
COc1ccc(Cc2nccc3cc(OC)c(OC)cc23)cc1OC [Papaverine hydrochloride] | 1.2
CCC1(CC)C(=O)C=CNC1=O | 0.987
C[C@@H]1NCCc2cc(O)c(O)cc21 [Salsolinol hydrobromide] | 1.13
C[C@@H]1NCCc2cc(O)c(O)cc21 | 0.403
CNCCc1c[nH]c2ccc(O)cc12 [N-omega-Methyl-5-hydroxytryptamine oxalate salt] | 0.998
NCCCP(=O)(O)O [3-Aminopropylphosphonic acid] | 0.748
NNC(=O)c1ccc(O)cc1 [4-Hydroxybenzhydrazide] | 1.15
NCCc1c[nH]c2ccc(O)cc12 [Serotonin hydrochloride] | 1.01
CCCN(CCC)CCc1ccc(O)c(O)c1 [Dipropyldopamine hydrobromide] | 0.944
COc1ccc(C[C@H]2NC[C@H](O)[C@H]2OC(C)=O)cc1 | 1.03 ± 0.15
CN1[C@@H](C[C@@H](O)c2ccccc2)CCC[C@H]1C[C@H](O)c1ccccc1 [Lobelanidine hydrochloride] | 0.759
COc1ccc2c(c1)/C(=C/c1cnc[nH]1)C(=O)N2 | 1.2
CC1(C)N([O-])[N+](=O)C1(C)Br (stereo not given) | 1.21
Ic1ccccc1CNC1C2CCN(CC2)C1C(c1ccccc1)c1ccccc1 ["L-703,606 oxalate"] | 0.688
O=C1c2ccccc2C(=O)c2ccccc21 | 0.859
Oc1c(Cl)c(Cl)c(Cl)c(Cl)c1Cl | 0.271
Cc1ccc(O)cc1.Cc1cccc(O)c1.Cc1ccccc1O | 0.9
CC1=CC(=O)C2=C(C)C[C@H](O)[C@@H]3[C@H](OC(=O)[C@H]3C)[C@@H]12 | 1.21
CC[C@H]1[C@@H]2C[C@H]3[C@@H]4N(C)c5ccccc5[C@]45C[C@@H]([C@@H]2[C@H]5O)N3[C@@H]1O | 0.9028 ± 0.0041
CC[C@H]1[C@@H]2C[C@H]3[C@@H]4N(C)c5ccccc5[C@]45C[C@@H]([C@@H]2[C@H]5O)N3[C@@H]1O [Ajmaline] | 0.975
CS(=N)(=O)CC[C@H](N)C(=O)O (stereo partly drawn) [L-Methionine sulfoximine] | 1.19
C[C@@H]1CC[C@H]2[C@@H](C)C(=O)O[C@@H]3O[C@@]4(C)CC[C@@H]1[C@]32OO4 | 1.03
CC[C@H]1CN2CCc3cc(OC)c(OC)cc3[C@@H]2C[C@@H]1C[C@H]1NCCc2cc(OC)c(OC)cc21 | 0.89 ± 0.15
CC[C@H]1CN2CCc3cc(OC)c(OC)cc3[C@@H]2C[C@@H]1C[C@H]1NCCc2cc(OC)c(OC)cc21 [Emetine dihydrochloride hydrate] | 1.07
CC(C)(C)C(=O)C(Oc1ccc(Cl)cc1)n1cncn1 (stereo not given) | 1.21
COc1ccc(C(=O)O[C@H]2CC[C@@]3(C)[C@@H]4CC[C@H]5[C@]6(O)C[C@H](O)[C@@]7(O)[C@@H](CN8C[C@@H](C)CC[C@H]8[C@@]7(C)O)[C@]6(O)C[C@@]53O[C@]24O)cc1OC | 0.984
COc1cc([C@@H]2c3cc4c(cc3[C@H](O)[C@H]3COC(=O)[C@H]23)OCO4)cc(OC)c1OC | 0.752 and 1.01

An excerpt of these results, tab-delimited.
SMILES	normalized bacterial growth
COc1ccc(Cc2nccc3cc(OC)c(OC)cc23)cc1OC [Papaverine hydrochloride]	1.2
CCC1(CC)C(=O)C=CNC1=O	0.987
C[C@@H]1NCCc2cc(O)c(O)cc21 [Salsolinol hydrobromide]	1.13
CNCCc1c[nH]c2ccc(O)cc12 [N-omega-Methyl-5-hydroxytryptamine oxalate salt]	0.998
COc1ccc(C[C@H]2NC[C@H](O)[C@H]2OC(C)=O)cc1	1.03 ± 0.15
CN1[C@@H](C[C@@H](O)c2ccccc2)CCC[C@H]1C[C@H](O)c1ccccc1 [Lobelanidine hydrochloride]	0.759
COc1ccc2c(c1)/C(=C/c1cnc[nH]1)C(=O)N2	1.2
Ic1ccccc1CNC1C2CCN(CC2)C1C(c1ccccc1)c1ccccc1 ["L-703,606 oxalate"]	0.688
O=C1c2ccccc2C(=O)c2ccccc21	0.859
Oc1c(Cl)c(Cl)c(Cl)c(Cl)c1Cl	0.271
CC1=CC(=O)C2=C(C)C[C@H](O)[C@@H]3[C@H](OC(=O)[C@H]3C)[C@@H]12	1.21
CS(=N)(=O)CC[C@H](N)C(=O)O (stereo partly drawn) [L-Methionine sulfoximine]	1.19
C[C@@H]1CC[C@H]2[C@@H](C)C(=O)O[C@@H]3O[C@@]4(C)CC[C@@H]1[C@]32OO4	1.03
CC[C@H]1CN2CCc3cc(OC)c(OC)cc3[C@@H]2C[C@@H]1C[C@H]1NCCc2cc(OC)c(OC)cc21	0.89 ± 0.15
CC[C@H]1CN2CCc3cc(OC)c(OC)cc3[C@@H]2C[C@@H]1C[C@H]1NCCc2cc(OC)c(OC)cc21 [Emetine dihydrochloride hydrate]	1.07
COc1ccc(C(=O)O[C@H]2CC[C@@]3(C)[C@@H]4CC[C@H]5[C@]6(O)C[C@H](O)[C@@]7(O)[C@@H](CN8C[C@@H](C)CC[C@H]8[C@@]7(C)O)[C@]6(O)C[C@@]53O[C@]24O)cc1OC	0.984

Later entries.

SMILES | normalized bacterial growth
CC(C)C[C@H](CN)CC(=O)O | 0.879
CN(C)C(=S)SSC(=S)N(C)C | 0.791
O=C1NC(=O)C(=O)C(=O)N1 | 1.02
CC(C)(C)NCC(O)c1ccccc1Cl (stereo not given) [Tulobuterol hydrochloride] | 1.07
CC1(C(=O)O)C2CCC(O2)C1(C)C(=O)O (stereo not given) [Cantharidic Acid] | 0.887
C[C@@]1(CO)[C@H](O)CC[C@@]2(C)[C@H]1CC[C@H]1C[C@@H]3C[C@@]12CC[C@]3(O)CO | 1.04
CCN1C[C@]2(COC)CC[C@H](O)[C@@]34C5C[C@@H]6[C@@H](OC)C[C@](O)(C(CC23)C14)C5[C@H]6OC(C)=O (stereo not given in full) | 1.03
COc1cc2c3cc1Oc1c(OC)c(OC)cc4c1[C@H](Cc1ccc(cc1)Oc1cc(ccc1O)C[C@H]3N(C)CC2)N(C)CC4 | 1.07
Cc1nnc2ccc(-c3cccc(C(F)(F)F)c3)nn12 | 0.939
COc1cc2c(cc1-c1cc3cc4ccoc4cc3oc1=O)OCO2 | 1.14
CCCN1CCc2cc(O)cc3c2[C@H]1Cc1ccc(O)c(O)c1-3 ["R(-)-2,10,11-Trihydroxy-N-propylnoraporphine hydrobromide"] | 0.859
C[N+]12CCC(CC1)C(OC(=O)C(O)(c1ccccc1)c1ccccc1)C2 (stereo not given) | 1.15
O=C(O)CCC1NCC2CC1CN1CCCCC21 (stereo not given) | 1.03
CCCN(CCC)[C@@H]1CCc2cccc(O)c2C1 [R-(+)-8-Hydroxy-DPAT hydrobromide] | 0.917
C#CCN[C@H](C)Cc1ccccc1 [R-(-)-Desmethyldeprenyl hydrochloride] | 1.25
O=C1CCC[C@@H]2[C@H]3C[C@@H](CN12)[C@@H]1CCCCN1C3.[O-][Cl+3]([O-])([O-])O | 1.3
C[C@@]12N[C@@H](Cc3ccccc31)c1ccccc12 [(-)-MK-801 hydrogen maleate] | 1.04
C[C@@]12N[C@@H](Cc3ccccc31)c1ccccc12 [(-)-MK 801 hydrogen maleate] | 0.883
CC(CC(C(N)=O)(c1ccccc1)c1ccccc1)N(C)C (stereo not given) | 0.686
COC(=O)C(c1ccccc1)C1CCCCN1 (stereo not given) | 1.13
COC[C@]12CN(C=O)[C@@H]3[C@@H]4[C@H](OC)[C@H]1[C@@]3([C@@H](OC)C[C@H]2O)[C@@H]1C[C@@]2(O)[C@H](OC(=O)c3ccccc3)[C@@H]1[C@]4(OC(C)=O)[C@@H](O)[C@@H]2OC | 1.3
CC(C)=CCCC1(C)C=Cc2c(O)c3c(c(CC=C(C)C)c2O1)OC12C(=CC4CC1C(C)(C)OC2(C/C=C(/C)C(=O)O)C4O)C3=O (stereo not given) | 1.11
C[C@H]1C(=O)O[C@@H]2CCN3CC=C(COC(=O)[C@](C)(O)[C@]1(C)O)[C@H]23 | 0.932
CO[C@]12C[C@@H](COC(=O)c3cncc(Br)c3)CN(C)[C@@H]1Cc1cn(C)c3cccc2c13 | 0.737
O=C(O)COc1cc(Cl)c(Cl)cc1Cl | 1.22
CC(=O)OCC1=C(C(=O)O)N2C(=O)[C@@H](N)[C@H]2SC1 | 0.943
CC(=O)OCC1=C(C(=O)O)N2C(=O)[C@@H](N)[C@H]2SC1 ["Cephalosporanic acid, 7-amino"] | 0.833
